In PubChem BioAssay AID493014 (National Center for Advancing Translational Sciences (NCATS), 2011):
This is one part of the list. Further columns of the screen follow, without active or inactive calls. Most of these compounds were active or inconclusive in the main read-out, so they are no random draw. The note in brackets gives the kind of curve behind each potency; many fits are weak.

Experiment: qHTS Assay to Find Inhibitors of Chronic Active B-Cell Receptor Signaling
Details: ABC-DLBCL IkBa-CBG/CBR reporter, luminescence ratio (green luciferase fused to IkBa over red control in TMD8 lymphoma cells), 4 h
How it was run: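 TMD8 ABC-DLBCL cells carrying doxycycline-inducible green luciferase fused to IkappaBalpha plus unfused red luciferase were exposed to compounds (up to 46 uM) for 4 hrs at 37C. Activity came from the overlap-corrected green/red luminescence ratio.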

[1] = measured here: CBR red luminescence, cell number
[2] = measured here: IkBa-CBG green luminescence

Row | Compound | AC50 [1] | AC50 [2]
1 | CC(C)(C)Cc1nnc(NC(=O)c2ccco2)s1 | 12.6 µM [falling, single point] | –
2 | COc1ccc(-c2[nH]ncc2-c2cnn(-c3ccccc3)c2)c(O)c1 | 2 µM [rising, full curve, poor fit] | –
3 | Cc1ccccc1OCC(=O)N(CC(C)C)c1c(N)n(CC(C)C)c(=O)[nH]c1=O | 0.112 µM [rising, full curve, poor fit] | –
4 | O=C(COC(=O)c1cc(S(=O)(=O)N2CCOCC2)ccc1Cl)Nc1ccccc1Cl | 29.1 µM [falling, single point] | –
5 | O=C(O)/C=C/C(=O)Nc1ccc(SC(F)(F)C(F)(F)C(F)(F)F)cc1 | 0.112 µM [rising, full curve, poor fit] | –
6 | CNCCCOc1ccc2c(c1)CCC2 | 8.91 µM [falling, partial curve] | –
7 | O=C(/C=C\c1cn(-c2ccccc2)nc1-c1ccccc1)Nc1nccs1 | 1.3 µM [falling, full curve] | 0.731 µM [rising, full curve, poor fit]
8 | O=C(Nc1ccccc1C(=O)O)c1cc(S(=O)(=O)N2CCCCC2)cs1 | 1.12 µM [rising, full curve, poor fit] | –
9 | c1cnn(-c2nc(N3CCOCC3)nc(N3CCOCC3)n2)c1 | 12.6 µM [falling, single point] | –
10 | O=C(CSc1ccccc1)Nc1cccc(NC(=O)c2ccco2)c1 | 10 µM [falling, partial curve, poor fit] | –
11 | CC(=O)N1c2ccc(Cl)cc2C2C=CCC2C1c1cccc2ccccc12 (configuration not stated) | 18.4 µM [falling, single point] | –
12 | O=C(CN1C(=O)CCC1=O)c1ccc(-c2ccccc2)cc1 | 5.8 µM [rising, single point] | –
13 | COC(=O)c1ccc(CSc2nc3ccccc3c(=O)n2-c2cccc(OC)c2)o1 | 7.94 µM [rising, partial curve, poor fit] | –
14 | C=CCC[C@@H](Cc1ccc(F)cc1)C(=O)O[C@H](CNC(=O)[C@H](CC=C)CC(=O)N(CCO)Cc1ccccc1)c1ccccc1 | 8.2 µM [falling, partial curve] | 10.3 µM [rising, partial curve, poor fit]
15 | CCC(C)c1ccc(C(C)NC(=S)NCc2ccc(F)cc2)cc1 (configuration not stated) | 11.2 µM [falling, partial curve] | –
16 | COC(=O)C1(CCSC)NC(c2ccc(OC)cc2OC)C2C(=O)N(c3cccc(C(C)=O)c3)C(=O)C21 (configuration not stated) | 6.31 µM [rising, full curve, poor fit] | –
17 | COc1ccc(C)cc1-n1nnnc1SCC(=O)c1cc(C)n(Cc2ccco2)c1C | 15.8 µM [rising, partial curve, poor fit] | –
18 | CCS(=O)(=O)Nc1cc(-c2nc3cccnc3s2)ccc1C | 1.64 µM [rising, partial curve, poor fit] | –
19 | CCN(CC)c1cc(C)c2cc(NC(=O)c3ccc(Br)o3)ccc2n1 | 7.08 µM [falling, partial curve, poor fit] | –
20 | N#CC(Cc1cc2ccccc2n1S(=O)(=O)c1ccccc1)OCc1ccccc1 (configuration not stated) | 6.51 µM [falling, partial curve] | –
21 | COc1ccc(NC(=O)Cc2ccsc2)cc1S(=O)(=O)N1CCCCC1 | 0.82 µM [rising, full curve, poor fit] | –

Record cards (already shown). Values in the order: AC50 [1] | AC50 [2]
O=C(/C=C\c1cn(-c2ccccc2)nc1-c1ccccc1)Nc1nccs1 reads 1.3 µM [falling, full curve] | 0.731 µM [rising, full curve, poor fit]
CCC(C)c1ccc(C(C)NC(=S)NCc2ccc(F)cc2)cc1 (configuration not stated) reads 11.2 µM [falling, partial curve] | –
O=C(COC(=O)c1cc(S(=O)(=O)N2CCOCC2)ccc1Cl)Nc1ccccc1Cl reads 29.1 µM [falling, single point] | –

Additional results:

Row | Compound | AC50 [1] | AC50 [2]
22 | COc1cccc2sc3cc(C#Cc4ccccn4)ccc3c(=O)c12 | 3.66 µM [falling, partial curve, poor fit] | –
23 | CC(C)(C)c1ccccc1OCCCCCNCCO | 29.1 µM [falling, single point] | –
24 | CCOC(=O)C1CCN(c2nc3ccccc3nc2C(C#N)C(=O)OC(C)COC)CC1 (configuration not stated) | 0.0517 µM [rising, full curve, poor fit] | –
25 | CC(=O)c1c(C)[nH]c(C(=O)N2CCN(S(=O)(=O)c3ccc(C)cc3C)CC2)c1C | 20.6 µM [rising, single point] | –
26 | CCN1C=C(Cc2ccc(F)cc2)C2=C(C1)C(c1ccc(F)cc1)C(C#N)=C(N)O2 (configuration not stated) | 29.1 µM [falling, single point] | –
27 | N#Cc1cc2c([nH]c1=S)CCCCCC2 | 3.55 µM [falling, partial curve, poor fit] | –
28 | Cc1c(/C=N/NC(=O)c2ccc(O)cc2)c2ccccn2c1C(=O)c1ccc(F)cc1 | 14.6 µM [falling, partial curve] | –
29 | COc1cccc(C(=O)N2CCN(C(=O)c3ccc(-c4ccccc4)cc3)CC2)c1OC | 11.2 µM [falling, single point] | –
30 | COc1cccc(CN2CCN(C(=O)c3oc4c(F)cccc4c3C)CC2=O)c1 | 2.24 µM [rising, partial curve, poor fit] | –
31 | O=C(CCS(=O)(=O)c1ccc(Cl)cc1)N1CCN(S(=O)(=O)c2cccs2)CC1 | 1.46 µM [rising, full curve, poor fit] | –
32 | COc1ccc(/C=C/c2nc3ccccc3c(=O)n2-c2cccc(C(F)(F)F)c2)cc1 | 35.5 µM [rising, single point] | –
33 | Cc1cc(Br)ccc1OCC(=O)NC1CCCC1 | 0.501 µM [rising, full curve] | –
34 | O=C(N/N=C/c1ccc[nH]1)c1ccc2c(c1)OCO2 | 6.31 µM [falling, partial curve] | –
35 | CCOc1ccc(-n2nnnc2SCC(=O)NC2CCCC2)cc1 | 31.6 µM [rising, single point] | 25.1 µM [falling, partial curve, poor fit]
36 | O=c1c2oc3ccccc3c2[nH]c(=S)n1-c1ccc(F)cc1 | 10 µM [falling, partial curve] | –
37 | COc1ccc(-c2c(C#Cc3ccccc3)c3ccccc3n2C)cc1 | 1.26 µM [rising, full curve, poor fit] | –
38 | O=C(Cn1ncc2c(=O)oc3ccccc3c21)NCC1COc2ccccc2O1 (configuration not stated) | 5.17 µM [falling, full curve, poor fit] | –
39 | CC(=O)Nc1ccc(NC(=O)CSc2nnc(-c3cccs3)n2N)cc1 | 3.66 µM [rising, partial curve, poor fit] | –
40 | CCCN1C(=O)C(Cc2nc3ccccc3c(=O)n2C)c2ccccc21 (configuration not stated) | 35.5 µM [falling, single point] | –
41 | COc1ccccc1N1CC(O)=C(c2nc3ccccc3c(=O)[nH]2)C1=N | 6.51 µM [falling, partial curve, poor fit] | –
42 | CCc1nnc(N/N=C/c2ccccc2F)n1N | 35.5 µM [falling, single point] | –

Row | Compound | AC50 [1] | AC50 [2]
43 | CCOc1ccc2cc(C(=O)c3ccccc3)c(=O)oc2c1 | 10.3 µM [rising, partial curve, poor fit] | –
44 | COc1ccc(S(=O)(=O)c2ccc(O)cc2)cc1 | 5.17 µM [rising, single point] | –
45 | O=C(COc1ccccc1)NCC1COc2ccccc2O1 (configuration not stated) | 11.2 µM [rising, partial curve] | –
46 | CCOC(=O)C1=C(N)Oc2c(c(=O)[nH]c3ccccc23)C1c1ccccc1 (configuration not stated) | 10 µM [falling, partial curve] | –
47 | CCOc1ccccc1C1C2CCCCC2(O)CCN1C(=O)c1cccs1 (configuration not stated) | 18.4 µM [falling, single point] | 16.4 µM [rising, partial curve, poor fit]
48 | C#CCOCCOCCOCCNc1nc(N2CCN(C(=O)CCCCCCCCCCNC(=O)[C@@H](CCSC)n3cc(CCO)nn3)CC2)nc(N2CCN(C(=O)CCCCCCCCCCNC(=O)[C@H](CCSC)n3cc(CCO)nn3)CC2)n1 | 6.51 µM [falling, single point] | 3.66 µM [rising, partial curve, poor fit]
49 | COc1ccc(-c2noc(C3CCCN(S(=O)(=O)c4ccc(C)c(Cl)c4)C3)n2)cc1OC (configuration not stated) | 35.5 µM [rising, single point] | –
50 | Cc1ccc(C(=O)N/N=C/c2ccc(-c3cccc(C(F)(F)F)c3)o2)cn1 | – | 11.2 µM [falling, single point]
51 | CCN1C(=O)c2ccccc2Sc2ccc(C(=O)NCCC(C)C)cc21 | 35.5 µM [falling, partial curve, poor fit] | –
52 | C=C(C)CNC(=S)NN=C1c2ccccc2-c2ccccc21 | 3.16 µM [rising, full curve] | –
53 | FC(F)(F)c1ccc(Oc2ccc3cc(Br)ccc3c2)nc1 | 6.51 µM [rising, partial curve, poor fit] | –
54 | COc1ccc2c(c1)OC/C(=C/c1cccs1)C2=O | 32.6 µM [falling, single point] | –
55 | Cc1ccc(NC(=O)Nc2ccc3c(c2)CCC3)cc1 | 0.282 µM [rising, full curve, poor fit] | –
56 | Cc1cc(C(=O)N/N=C/c2cn[nH]c2-c2ccccc2)cs1 | 18.4 µM [falling, single point] | –
57 | Cc1cc(C(=O)NNC(=O)/C=C/c2ccc(F)cc2)c(C)o1 | 1 µM [falling, full curve] | –
58 | COC(=O)c1sccc1NC(=O)Nc1cccc(C)c1 | 3.55 µM [falling, full curve] | –
59 | CCOC(=O)CNC(=O)N1CCc2ccc(NC(=O)c3ccccc3OC)cc2C1 | – | 12.6 µM [falling, partial curve, poor fit]
60 | COC(=O)C1=C(C)NC2=C(C(=O)C(C(=O)OC)C(c3ccc(OC)cc3)C2)C1c1ccccn1 (configuration not stated) | 5.62 µM [falling, single point] | –
61 | CCCn1c(NCc2ccco2)nc2c1c(=O)n(C)c(=O)n2C | 0.651 µM [falling, full curve, poor fit] | 3.26 µM [rising, partial curve, poor fit]
